Experimental data taken from US20250276996A1, “CATIONICALLY-ENFRAMED HIGH DENSITY AROMATIC PEPTIDES” (Research Foundation of the City University of New York, priority 2022, published 2025).

Assay: TMRM labeling of biotin-HDAP2-CL vesicles
Conditions: 100 μM CCCP or 1 mM DNP

For `N#CC(C#N)=NNc1cccc(Cl)c1` [CCCP, carbonyl cyanide m-chlorophenylhydrazone, reference compound], the “TMRM staining of CL-biotin-HDAP2 vesicles with proton ionophore” value was “significant decreases in TMRM staining”.
